Taken from: PubChem BioAssay AID1259308 (NCATS, 2017)
In all, the deposit lists about 59,000 reagents; shown is a part drawn at random. Over the whole deposit, about 1,510 (2.6%) were called active. 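Calls use total luciferase alone and ignore viability, so some active siRNAs may act by altering cell number.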 Reagents against one gene are numbered here.

Assay: 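Candidate targets for better recombinant protein yield in mammalian cells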 (primary screen)
System: human HEK293 embryonic kidney cells stably expressing firefly luciferase (HEK-CMV-Luc2-Hygro)
Reagent: single siRNA against human genes, 0.8 pmol siRNA per well
Duration: 72 h
Measured: 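Luciferase light (ONE-Glo) measured on one replicate plate set and viability (CellTiter-Glo) on the other, scaled to a negative control siRNA, with robust z-scores and luciferase per cell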
Reading the numbers: total luciferase, z-score and total luciferase, % of control: higher = more reporter protein produced; luciferase per cell, z-score: higher = more reporter output per viable cell; viable cells, % of control: higher = more viable cells
Active means: 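Active when the median/MAD z-score for overall luciferase is greater than 3; a gene was taken forward for validation with new siRNAs if at least two of its three siRNAs passed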
Meaning of the calls: active = raised luciferase; inactive = no rise

gene | siRNA no. | total luciferase, z-score | total luciferase, % of control | luciferase per cell, z-score | viable cells, % of control | outcome
RAB8B (GeneID 51762) | 1 | -0.174 | 78.4 | -0.265 | 94 | inactive
RAB8B (GeneID 51762) | 2 | -1.85 | 45.2 | -1.69 | 78.7 | inactive
RAB8B (GeneID 51762) | 3 | 1.07 | 103 | 1.34 | 81 | inactive
SMIM20 (GeneID 389203) | 1 | 0.804 | 97.9 | -0.28 | 118 | inactive
SMIM20 (GeneID 389203) | 2 | -0.042 | 81.1 | 0.226 | 85.3 | inactive
SMIM20 (GeneID 389203) | 3 | 0.623 | 94.3 | 1.04 | 80.1 | inactive
FLII (GeneID 2314) | 1 | -1.68 | 48.5 | -1.16 | 73.5 | inactive
FLII (GeneID 2314) | 2 | 0.122 | 84.3 | -0.536 | 108 | inactive
FLII (GeneID 2314) | 3 | 0.169 | 85.3 | 0.355 | 86.8 | inactive
GIP (GeneID 2695) | 1 | -0.326 | 75.4 | -0.927 | 108 | inactive
GIP (GeneID 2695) | 2 | 0.322 | 88.3 | 0.57 | 84.9 | inactive
GIP (GeneID 2695) | 3 | -1.33 | 55.4 | -1.82 | 99.9 | inactive
IL36G (GeneID 56300) | 1 | 0.194 | 85.7 | 0.427 | 85.6 | inactive
IL36G (GeneID 56300) | 2 | 0.0698 | 83.3 | -0.254 | 99.5 | inactive
IL36G (GeneID 56300) | 3 | -1.26 | 56.8 | -1.36 | 90.8 | inactive
ARL6 (GeneID 84100) | 1 | -1.86 | 44.9 | -2.11 | 87.5 | inactive
ARL6 (GeneID 84100) | 2 | -0.829 | 65.4 | -0.998 | 95 | inactive
ARL6 (GeneID 84100) | 3 | 2.73 | 136 | 2.77 | 73.3 | inactive
LCOR (GeneID 84458) | 1 | -1.03 | 61.5 | -0.959 | 88.4 | inactive
LCOR (GeneID 84458) | 2 | 1.39 | 109 | 1.28 | 87.4 | inactive
LCOR (GeneID 84458) | 3 | -0.929 | 63.4 | -0.478 | 80.4 | inactive
LCOR (GeneID 84458) | 4 | 0.168 | 85.2 | 0.0594 | 93.7 | inactive
LCOR (GeneID 84458) | 5 | -0.0222 | 81.4 | -0.196 | 95.8 | inactive
LCOR (GeneID 84458) | 6 | -0.796 | 66.1 | -1.24 | 102 | inactive
E2F1 (GeneID 1869) | 1 | 3.21 | 146 | 2.77 | 78.5 | active
E2F1 (GeneID 1869) | 2 | 0.0709 | 83.3 | 0.241 | 87.4 | inactive
E2F1 (GeneID 1869) | 3 | -0.416 | 73.6 | 0.123 | 79.6 | inactive
EIF4E1B (GeneID 253314) | 1 | -0.426 | 73.4 | 1.19 | 59.9 | inactive
EIF4E1B (GeneID 253314) | 2 | 0.63 | 94.4 | 0.672 | 88.4 | inactive
EIF4E1B (GeneID 253314) | 3 | 0.76 | 97 | 1.16 | 79.8 | inactive
HAGH (GeneID 3029) | 1 | -0.207 | 77.8 | 0.551 | 75.2 | inactive
HAGH (GeneID 3029) | 2 | 0.243 | 86.7 | 1.25 | 69.7 | inactive
HAGH (GeneID 3029) | 3 | -2.19 | 38.3 | -1.53 | 64.1 | inactive
MIB2 (GeneID 142678) | 1 | 0.963 | 101 | 2.06 | 65.6 | inactive
MIB2 (GeneID 142678) | 2 | -0.983 | 62.3 | -0.923 | 88.8 | inactive
MIB2 (GeneID 142678) | 3 | -1.6 | 50.1 | -0.912 | 71.1 | inactive

Continued, starting with the last 3 of the part before.
gene | siRNA no. | total luciferase, z-score | total luciferase, % of control | luciferase per cell, z-score | viable cells, % of control | outcome
MIB2 (GeneID 142678) | 1 | 0.963 | 101 | 2.06 | 65.6 | inactive
MIB2 (GeneID 142678) | 2 | -0.983 | 62.3 | -0.923 | 88.8 | inactive
MIB2 (GeneID 142678) | 3 | -1.6 | 50.1 | -0.912 | 71.1 | inactive
GMPR (GeneID 2766) | 1 | 0.544 | 92.7 | 0.478 | 91.3 | inactive
GMPR (GeneID 2766) | 2 | -1.49 | 52.3 | -1.49 | 86.4 | inactive
GMPR (GeneID 2766) | 3 | 0.0122 | 82.1 | -0.328 | 100 | inactive
RPH3AL (GeneID 9501) | 1 | 0.103 | 83.9 | 0.405 | 84.3 | inactive
RPH3AL (GeneID 9501) | 2 | 0.774 | 97.3 | 0.604 | 92.7 | inactive
RPH3AL (GeneID 9501) | 3 | -0.253 | 76.9 | 0.374 | 77.8 | inactive
EFCAB13 (GeneID 124989) | 1 | 3.91 | 160 | 4.23 | 58.5 | active
EFCAB13 (GeneID 124989) | 2 | -0.762 | 66.7 | -0.826 | 92.7 | inactive
EFCAB13 (GeneID 124989) | 3 | -0.423 | 73.5 | -0.712 | 99 | inactive
MUC22 (GeneID 100507679) | 1 | 0.312 | 88.1 | 1.47 | 66.8 | inactive
MUC22 (GeneID 100507679) | 2 | -0.652 | 68.9 | -0.153 | 80.2 | inactive
MUC22 (GeneID 100507679) | 3 | 0.39 | 89.6 | 0.96 | 77.8 | inactive
HCK (GeneID 3055) | 1 | 1.45 | 111 | 1.51 | 83.3 | inactive
HCK (GeneID 3055) | 2 | -0.595 | 70.1 | -0.481 | 88.8 | inactive
HCK (GeneID 3055) | 3 | -0.146 | 79 | -0.158 | 92 | inactive
IMPA2 (GeneID 3613) | 1 | 0.449 | 90.8 | 0.846 | 81.2 | inactive
IMPA2 (GeneID 3613) | 2 | 2.51 | 132 | 1.81 | 91.5 | inactive
IMPA2 (GeneID 3613) | 3 | -0.527 | 71.4 | -0.842 | 99.6 | inactive
ESYT1 (GeneID 23344) | 1 | -0.449 | 73 | 0.619 | 69.3 | inactive
ESYT1 (GeneID 23344) | 2 | 0.458 | 91 | 0.404 | 91.4 | inactive
ESYT1 (GeneID 23344) | 3 | -2.04 | 41.4 | -1.58 | 70.1 | inactive
